Reference: PubChem BioAssay AID1508587 (Peter MacCallum Cancer Centre, 2020)
The deposit covers about 1,600 reagents; below is a part drawn at random. Over the whole deposit, 623 (39%) were called active. 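Calls are for each duplex; lactate ratios contain extreme outliers.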 The numbers tell different reagents against one gene apart. Not all columns of the deposit are shown. No sequences are given here.

- Test: 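Follow-up of vemurafenib sensitisers scored by lactate made per cell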 (follow-up of hits)
- System: human WM266.4 melanoma cells with a BRAF V600 mutation
- Knock-down reagent: single siRNA against human genes, 25 nM
- Duration: 96 h
- Conditions: vemurafenib 300 nM (about IC25), given 48 h after transfection for 48 h
- Read-out: 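Per-cell lactate from absorbance divided by DAPI nucleus counts, compared with and without vemurafenib, relative to non-targeting siRNA, mean of 2 replicates; nuclear counts also give cell number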
- Direction: lactate per cell, drug vs no drug: higher = less drug-induced drop in lactate per cell; lactate per cell with vemurafenib: higher = more lactate per cell under drug
- Active means: 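a duplex is active when its lactate-per-cell ratio with versus without drug falls under 0.55, i.e. 2 SD below non-targeting; a gene is confirmed if 2 or more of 4 duplexes pass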

| gene knocked down | siRNA no. | lactate per cell, drug vs no drug | lactate per cell with vemurafenib | activity call |
| --- | --- | --- | --- | --- |
| STAB2 (stabilin 2) | 1 | 0.7 | 1.69 | inactive |
| STAB2 (stabilin 2) | 2 | 0.61 | 0.98 | inactive |
| STAB2 (stabilin 2) | 3 | 0.44 | 0.88 | active |
| STAB2 (stabilin 2) | 4 | 1.29 | 4.29 | inactive |
| MRPL9 (mitochondrial ribosomal protein L9) | 1 | 0.34 | 1.22 | active |
| MRPL9 (mitochondrial ribosomal protein L9) | 2 | 0.52 | 0.72 | active |
| MRPL9 (mitochondrial ribosomal protein L9) | 3 | 0.73 | 1.46 | inactive |
| MRPL9 (mitochondrial ribosomal protein L9) | 4 | 0.68 | 1.25 | inactive |
| FANCM (FA complementation group M) | 1 | 0.5 | 1.12 | active |
| FANCM (FA complementation group M) | 2 | 0.45 | 1.03 | active |
| FANCM (FA complementation group M) | 3 | 0.71 | 2.33 | inactive |
| FANCM (FA complementation group M) | 4 | 0.68 | 1.97 | inactive |
| GOLM2 (golgi membrane protein 2) | 1 | 0.5 | 2.04 | active |
| GOLM2 (golgi membrane protein 2) | 2 | 0.52 | 1.04 | active |
| GOLM2 (golgi membrane protein 2) | 3 | 0.54 | 0.68 | active |
| GOLM2 (golgi membrane protein 2) | 4 | 0.62 | 1.28 | inactive |
| PIEZO2 (piezo type mechanosensitive ion channel component 2) | 1 | 0.52 | 1.21 | active |
| PIEZO2 (piezo type mechanosensitive ion channel component 2) | 2 | 0.55 | 0.53 | inactive |
| PIEZO2 (piezo type mechanosensitive ion channel component 2) | 3 | 0.54 | 0.88 | active |
| PIEZO2 (piezo type mechanosensitive ion channel component 2) | 4 | 0.91 | 1.55 | inactive |
| RPL29 (ribosomal protein L29) | 1 | 0.38 | 0.36 | active |
| RPL29 (ribosomal protein L29) | 2 | 0.74 | 1.38 | inactive |
| RPL29 (ribosomal protein L29) | 3 | 0.55 | 1 | inactive |
| RPL29 (ribosomal protein L29) | 4 | 0.55 | 1.04 | inactive |
| LRG1 (leucine rich alpha-2-glycoprotein 1) | 1 | 0.46 | 0.93 | active |
| LRG1 (leucine rich alpha-2-glycoprotein 1) | 2 | 0.52 | 0.97 | active |
| LRG1 (leucine rich alpha-2-glycoprotein 1) | 3 | 0.52 | 2.04 | active |
| LRG1 (leucine rich alpha-2-glycoprotein 1) | 4 | 0.67 | 1.3 | inactive |
| ATXN2L (ataxin 2 like) | 1 | 0.44 | 0.98 | active |
| ATXN2L (ataxin 2 like) | 2 | 0.88 | 2.29 | inactive |
| ATXN2L (ataxin 2 like) | 3 | 0.43 | 1.04 | active |
| ATXN2L (ataxin 2 like) | 4 | 0.29 | 0.34 | active |
| TMPPE (transmembrane protein with metallophosphoesterase domain) | 1 | 0.53 | 1.24 | active |
| TMPPE (transmembrane protein with metallophosphoesterase domain) | 2 | 0.5 | 0.7 | active |
| TMPPE (transmembrane protein with metallophosphoesterase domain) | 3 | 0.75 | 1.06 | inactive |
| TMPPE (transmembrane protein with metallophosphoesterase domain) | 4 | 0.4 | 0.67 | active |
| FEZF2 (FEZ family zinc finger 2) | 1 | 0.5 | 0.98 | active |
| FEZF2 (FEZ family zinc finger 2) | 2 | 0.63 | 0.99 | inactive |
| FEZF2 (FEZ family zinc finger 2) | 3 | 0.46 | 0.16 | active |
| FEZF2 (FEZ family zinc finger 2) | 4 | 0.52 | 0.83 | active |
| RCOR1 (REST corepressor 1) | 1 | 0.38 | 0.57 | active |
| RCOR1 (REST corepressor 1) | 2 | 0.12 | 0.28 | active |
| RCOR1 (REST corepressor 1) | 3 | 0.45 | 0.5 | active |
| RCOR1 (REST corepressor 1) | 4 | 0.65 | 0.94 | inactive |
| LRRC34 (leucine rich repeat containing 34) | 1 | 0.6 | 0.86 | inactive |
| LRRC34 (leucine rich repeat containing 34) | 2 | 0.36 | 0.54 | active |
| LRRC34 (leucine rich repeat containing 34) | 3 | 0.7 | 1.17 | inactive |
| LRRC34 (leucine rich repeat containing 34) | 4 | 0.58 | 1.32 | inactive |
| CT47A6 (cancer/testis antigen family 47 member A6) | 1 | 0.55 | 0.98 | inactive |
| CT47A6 (cancer/testis antigen family 47 member A6) | 2 | 0.65 | 1.29 | inactive |
| CT47A6 (cancer/testis antigen family 47 member A6) | 3 | 0.7 | 1.99 | inactive |
| CT47A6 (cancer/testis antigen family 47 member A6) | 4 | 0.34 | 0.44 | active |

Laid out differently: results already given
gene knocked down,siRNA no.,"lactate per cell, drug vs no drug",lactate per cell with vemurafenib,activity call
TMPPE (transmembrane protein with metallophosphoesterase domain),1,0.53,1.24,active
TMPPE (transmembrane protein with metallophosphoesterase domain),2,0.5,0.7,active
TMPPE (transmembrane protein with metallophosphoesterase domain),3,0.75,1.06,inactive
TMPPE (transmembrane protein with metallophosphoesterase domain),4,0.4,0.67,active
FEZF2 (FEZ family zinc finger 2),1,0.5,0.98,active
FEZF2 (FEZ family zinc finger 2),2,0.63,0.99,inactive
